Data from the supplement of paper PMC10849652.
The other results are listed elsewhere or left out.

Sequences of proteins named here, by UniProt entry; tags and fusion partners are left off. A change or cut given only in a name is not applied to a line headed by its entry.
UniProt Q9Y606: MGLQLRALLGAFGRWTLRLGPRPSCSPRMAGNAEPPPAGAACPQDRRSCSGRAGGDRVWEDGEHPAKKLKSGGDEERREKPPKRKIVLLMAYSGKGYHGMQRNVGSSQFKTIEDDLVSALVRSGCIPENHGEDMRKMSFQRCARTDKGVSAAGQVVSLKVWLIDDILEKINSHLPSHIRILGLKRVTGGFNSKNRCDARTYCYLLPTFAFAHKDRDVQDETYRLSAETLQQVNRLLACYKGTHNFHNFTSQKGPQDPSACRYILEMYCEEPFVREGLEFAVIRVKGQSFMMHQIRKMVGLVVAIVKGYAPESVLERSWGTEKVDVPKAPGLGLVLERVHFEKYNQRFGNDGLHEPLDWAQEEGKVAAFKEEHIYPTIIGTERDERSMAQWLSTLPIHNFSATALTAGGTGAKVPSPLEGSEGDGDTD
UniProt Q9NRG1: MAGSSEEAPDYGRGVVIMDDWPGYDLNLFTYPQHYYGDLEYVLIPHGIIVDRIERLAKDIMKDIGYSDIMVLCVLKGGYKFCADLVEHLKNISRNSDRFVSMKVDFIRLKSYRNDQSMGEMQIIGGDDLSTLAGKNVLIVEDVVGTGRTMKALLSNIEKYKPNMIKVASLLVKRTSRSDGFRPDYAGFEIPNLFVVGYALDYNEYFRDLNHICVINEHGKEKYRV
UniProt Q8WUK0: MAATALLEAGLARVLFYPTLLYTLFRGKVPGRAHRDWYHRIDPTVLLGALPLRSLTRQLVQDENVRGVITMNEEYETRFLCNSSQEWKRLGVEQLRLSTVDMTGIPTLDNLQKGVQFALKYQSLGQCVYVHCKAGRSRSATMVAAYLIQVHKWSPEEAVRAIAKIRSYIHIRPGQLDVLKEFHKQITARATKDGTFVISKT
UniProt P25786: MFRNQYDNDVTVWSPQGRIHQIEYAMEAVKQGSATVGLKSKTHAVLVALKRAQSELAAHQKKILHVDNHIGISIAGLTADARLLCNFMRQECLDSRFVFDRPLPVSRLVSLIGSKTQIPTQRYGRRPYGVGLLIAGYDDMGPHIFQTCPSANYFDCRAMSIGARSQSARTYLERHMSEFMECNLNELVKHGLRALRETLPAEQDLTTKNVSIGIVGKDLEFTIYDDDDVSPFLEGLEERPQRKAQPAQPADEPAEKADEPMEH
UniProt P49720: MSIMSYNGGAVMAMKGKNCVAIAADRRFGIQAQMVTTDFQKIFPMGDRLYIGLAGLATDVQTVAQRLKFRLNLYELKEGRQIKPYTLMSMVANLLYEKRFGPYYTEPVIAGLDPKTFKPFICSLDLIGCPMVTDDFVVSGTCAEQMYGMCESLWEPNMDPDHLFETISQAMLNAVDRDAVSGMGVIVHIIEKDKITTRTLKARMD
UniProt Q92530: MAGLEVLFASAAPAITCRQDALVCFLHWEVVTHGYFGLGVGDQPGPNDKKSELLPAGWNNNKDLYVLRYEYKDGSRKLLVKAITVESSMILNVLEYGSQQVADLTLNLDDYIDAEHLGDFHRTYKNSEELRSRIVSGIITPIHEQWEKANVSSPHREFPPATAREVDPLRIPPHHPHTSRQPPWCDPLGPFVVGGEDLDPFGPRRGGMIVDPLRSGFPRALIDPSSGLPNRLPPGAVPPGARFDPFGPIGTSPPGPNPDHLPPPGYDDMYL
UniProt Q00577: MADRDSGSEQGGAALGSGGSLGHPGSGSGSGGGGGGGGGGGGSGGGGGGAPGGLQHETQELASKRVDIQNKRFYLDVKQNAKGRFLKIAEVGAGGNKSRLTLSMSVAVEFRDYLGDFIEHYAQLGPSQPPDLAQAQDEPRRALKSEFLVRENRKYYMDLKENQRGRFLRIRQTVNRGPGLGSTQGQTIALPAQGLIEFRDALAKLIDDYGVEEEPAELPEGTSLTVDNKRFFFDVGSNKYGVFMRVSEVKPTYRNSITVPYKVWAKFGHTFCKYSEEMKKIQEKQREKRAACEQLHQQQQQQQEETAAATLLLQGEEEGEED
UniProt Q16401: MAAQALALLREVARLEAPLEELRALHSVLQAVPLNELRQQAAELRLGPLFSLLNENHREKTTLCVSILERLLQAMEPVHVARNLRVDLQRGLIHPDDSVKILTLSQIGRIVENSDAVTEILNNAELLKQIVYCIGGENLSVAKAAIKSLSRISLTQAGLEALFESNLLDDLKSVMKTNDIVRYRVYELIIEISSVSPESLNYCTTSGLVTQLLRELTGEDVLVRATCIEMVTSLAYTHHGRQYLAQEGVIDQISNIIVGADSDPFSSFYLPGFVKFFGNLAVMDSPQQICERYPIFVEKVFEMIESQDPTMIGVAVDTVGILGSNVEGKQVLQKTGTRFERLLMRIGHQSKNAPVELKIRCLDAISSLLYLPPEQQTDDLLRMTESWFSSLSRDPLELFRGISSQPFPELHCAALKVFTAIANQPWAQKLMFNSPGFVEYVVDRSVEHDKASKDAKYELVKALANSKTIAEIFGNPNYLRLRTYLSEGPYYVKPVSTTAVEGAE
UniProt Q96BW5: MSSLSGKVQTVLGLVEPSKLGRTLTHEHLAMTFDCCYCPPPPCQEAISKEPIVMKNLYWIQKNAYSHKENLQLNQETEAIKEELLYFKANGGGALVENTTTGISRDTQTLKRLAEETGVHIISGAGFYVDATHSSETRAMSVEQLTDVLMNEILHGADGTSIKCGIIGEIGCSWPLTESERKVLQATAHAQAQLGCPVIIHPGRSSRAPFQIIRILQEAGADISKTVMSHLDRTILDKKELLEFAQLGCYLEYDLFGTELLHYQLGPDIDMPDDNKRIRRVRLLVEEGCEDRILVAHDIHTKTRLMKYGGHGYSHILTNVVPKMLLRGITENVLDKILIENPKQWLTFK
UniProt Q9UHX1: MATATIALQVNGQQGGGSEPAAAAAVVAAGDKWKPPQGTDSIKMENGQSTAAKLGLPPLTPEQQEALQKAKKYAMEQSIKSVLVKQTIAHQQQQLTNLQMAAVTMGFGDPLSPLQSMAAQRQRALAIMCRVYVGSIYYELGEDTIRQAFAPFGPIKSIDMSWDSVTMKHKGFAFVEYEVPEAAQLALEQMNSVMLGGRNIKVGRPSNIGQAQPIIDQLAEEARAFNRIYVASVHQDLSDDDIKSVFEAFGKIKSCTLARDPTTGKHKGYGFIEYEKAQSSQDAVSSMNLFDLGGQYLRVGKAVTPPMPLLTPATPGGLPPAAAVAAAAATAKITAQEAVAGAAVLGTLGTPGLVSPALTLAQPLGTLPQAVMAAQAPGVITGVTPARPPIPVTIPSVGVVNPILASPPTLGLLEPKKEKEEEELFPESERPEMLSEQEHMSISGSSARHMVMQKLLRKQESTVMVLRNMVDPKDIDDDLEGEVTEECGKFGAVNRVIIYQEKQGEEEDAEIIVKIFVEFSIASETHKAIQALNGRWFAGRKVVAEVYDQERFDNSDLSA
UniProt Q9BRP8: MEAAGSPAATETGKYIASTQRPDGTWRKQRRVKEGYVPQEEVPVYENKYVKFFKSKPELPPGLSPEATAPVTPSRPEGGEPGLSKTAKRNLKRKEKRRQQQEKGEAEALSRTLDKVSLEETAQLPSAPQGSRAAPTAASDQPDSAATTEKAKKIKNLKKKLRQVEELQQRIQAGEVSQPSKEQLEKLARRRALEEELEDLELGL
UniProt Q86TP1: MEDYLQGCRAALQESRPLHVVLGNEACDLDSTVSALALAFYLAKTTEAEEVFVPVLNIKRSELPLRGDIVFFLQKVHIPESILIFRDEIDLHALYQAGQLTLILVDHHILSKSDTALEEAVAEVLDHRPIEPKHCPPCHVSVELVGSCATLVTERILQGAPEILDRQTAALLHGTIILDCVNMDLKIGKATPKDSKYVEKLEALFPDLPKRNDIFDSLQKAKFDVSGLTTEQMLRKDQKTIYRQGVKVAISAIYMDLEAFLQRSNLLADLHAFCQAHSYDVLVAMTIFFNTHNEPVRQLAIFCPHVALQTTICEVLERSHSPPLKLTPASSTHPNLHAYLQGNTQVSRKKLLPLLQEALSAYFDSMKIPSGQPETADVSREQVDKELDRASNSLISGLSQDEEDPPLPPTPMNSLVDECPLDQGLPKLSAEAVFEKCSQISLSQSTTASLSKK

Legend:
Test in all cases: log2 fold change, soluble protein after heating vs DMSO (PISA); higher = thermal stabilisation; K562 cells, 10 uM, 30 min; active = over 0.2 and 3.5 SD of the protein, either way, in both replicates (recomputed)
[1] = compound: C1=CC=C(C=C1)[C@H](COC2=CC3=C(C=C2)NC(=O)N3)NC(=O)C4=CC=CN(C4=O)CC5=CC(=C(C=C5)F)F
Summary of the method: (§1)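 K562 cells at 2×10^6 cells/mL were given 10 μM compound for 30 min. Aliquots then went through 3 min of heating across 48°C-58°C, were pooled, and were extracted in PBS with 0.5% NP-40 at 4°C, and the supernatant after 21,000xg for 90 min was quantified by TMTpro 16plex LC-MS/MS with channel sums equalised. Thermal stability relative to control samples, from duplicates, is given as log2 fold change.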

[2] = compound: CC1=C(SC2=C1C(=N[C@H](C3=NN=C(N32)C)CC(=O)N)C4=CC=C(C=C4)Cl)C
Summary of the method: as §1

[3] = compound: CC1=C2C(=CC=C1)N=C(N(C2=O)C3=CC=CC=C3C)CN4C=NC5=C(N=CN=C54)N
Summary of the method: as §1

[4] = compound: Cc1sc2c(c1C)C(c1ccc(Cl)cc1)=N[C@@H](CC(=O)OC(C)(C)C)c1nnc(C)n1-2
Summary of the method: as §1

[5] = compound: c1ccc([C@@H]2C[C@H]2NC2CCNCC2)cc1
Summary of the method: as §1

Measured: log2 fold change

PUS1 (UniProt Q9Y606)
inactive: [1] 0.121 | [2] -0.036 | [3] 0.013 | [4] 0.092 | [5] -0.093

PRTFDC1 (UniProt Q9NRG1)
inactive: [1] 0.041 | [2] 0.02 | [3] 0.004 | [4] -0.027 | [5] -0.003

PTPMT1 (UniProt Q8WUK0)
inactive: [1] -0.019 | [2] 0.086 | [3] 0.029 | [4] 0.066 | [5] 0.01

PSMA1 isoform 2 (UniProt P25786)
inactive: [1] 0.023 | [2] -0.066 | [3] -0.059 | [4] -0.006 | [5] 0.052

PSMB3 (UniProt P49720)
inactive: [1] -0.006 | [2] -0.064 | [3] -0.044 | [4] -0.029 | [5] 0.029

PSMF1 (UniProt Q92530)
inactive: [1] 0.033 | [2] 0.059 | [3] 0.106 | [4] 0.023 | [5] 0.049

PURA (UniProt Q00577)
inactive: [1] 0.116 | [2] -0.403 | [3] -0.092 | [4] 0.298 | [5] 0.043

PSMD5 (UniProt Q16401)
inactive: [1] 0 | [2] 0.028 | [3] 0.006 | [4] -0.006 | [5] -0.001

PTER (UniProt Q96BW5)
inactive: [1] -0.001 | [2] 0.033 | [3] 0.006 | [4] 0.003 | [5] -0.011

PUF60 isoform 2 (UniProt Q9UHX1)
inactive: [1] 0.044 | [2] 0.097 | [3] -0.312 | [4] -0.146 | [5] -0.079

2 successive entries already listed, quoted:
PURA (UniProt Q00577)
inactive: [1] 0.116 | [2] -0.403 | [3] -0.092 | [4] 0.298 | [5] 0.043

PSMD5 (UniProt Q16401)
inactive: [1] 0 | [2] 0.028 | [3] 0.006 | [4] -0.006 | [5] -0.001

The list goes on:

PYM1 (UniProt Q9BRP8)
inactive: [1] 0.051 | [2] -0.101 | [3] -0.087 | [4] 0.056 | [5] 0.027

PRUNE1 (UniProt Q86TP1)
inactive: [1] -0.025 | [2] -0.002 | [3] 0.023 | [4] 0 | [5] -0.007

PTPA (UniProt A6PVN8)
inactive: [1] 0.011 | [2] 0.011 | [3] 0.001 | [4] -0.015 | [5] 0.148
